# In the supplement of paper PMC10032668:
# By UniProt entry, the sequences of proteins in these tests, tags left out.
# CAMP, P49913, UniProt P49913, whole entry: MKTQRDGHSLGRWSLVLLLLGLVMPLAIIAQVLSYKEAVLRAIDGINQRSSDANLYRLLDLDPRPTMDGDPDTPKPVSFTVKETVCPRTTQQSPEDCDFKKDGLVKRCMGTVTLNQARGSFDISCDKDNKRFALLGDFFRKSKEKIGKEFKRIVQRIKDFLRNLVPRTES
# CFDP1, Q9UEE9, UniProt Q9UEE9, whole entry: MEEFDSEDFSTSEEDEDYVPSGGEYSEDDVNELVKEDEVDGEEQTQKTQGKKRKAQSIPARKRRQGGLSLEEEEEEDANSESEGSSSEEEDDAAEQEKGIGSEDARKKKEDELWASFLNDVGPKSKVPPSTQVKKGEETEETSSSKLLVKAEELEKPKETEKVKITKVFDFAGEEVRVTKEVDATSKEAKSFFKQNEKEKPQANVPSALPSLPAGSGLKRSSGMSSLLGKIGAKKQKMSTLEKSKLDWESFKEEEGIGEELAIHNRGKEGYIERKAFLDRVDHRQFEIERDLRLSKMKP
# NCL, P19338, UniProt P19338, whole entry: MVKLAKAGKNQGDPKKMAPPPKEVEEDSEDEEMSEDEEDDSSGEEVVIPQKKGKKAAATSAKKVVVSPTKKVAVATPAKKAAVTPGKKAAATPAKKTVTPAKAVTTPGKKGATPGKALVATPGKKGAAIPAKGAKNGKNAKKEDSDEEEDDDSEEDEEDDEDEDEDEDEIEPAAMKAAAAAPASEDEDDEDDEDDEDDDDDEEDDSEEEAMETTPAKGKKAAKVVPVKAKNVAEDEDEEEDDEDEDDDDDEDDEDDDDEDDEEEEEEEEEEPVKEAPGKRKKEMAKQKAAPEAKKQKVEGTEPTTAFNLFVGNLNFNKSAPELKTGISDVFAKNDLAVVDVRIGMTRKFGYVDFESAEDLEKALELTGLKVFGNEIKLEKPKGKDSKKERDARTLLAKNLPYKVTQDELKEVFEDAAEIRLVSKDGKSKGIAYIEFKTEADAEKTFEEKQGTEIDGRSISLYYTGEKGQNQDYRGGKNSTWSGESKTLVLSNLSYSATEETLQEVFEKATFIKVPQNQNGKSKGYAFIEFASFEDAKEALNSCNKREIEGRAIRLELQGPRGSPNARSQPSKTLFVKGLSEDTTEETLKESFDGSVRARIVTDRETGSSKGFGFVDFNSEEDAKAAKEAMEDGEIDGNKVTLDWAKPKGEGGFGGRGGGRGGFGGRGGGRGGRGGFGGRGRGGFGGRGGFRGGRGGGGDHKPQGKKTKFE
# SET, Q01105, UniProt Q01105, whole entry: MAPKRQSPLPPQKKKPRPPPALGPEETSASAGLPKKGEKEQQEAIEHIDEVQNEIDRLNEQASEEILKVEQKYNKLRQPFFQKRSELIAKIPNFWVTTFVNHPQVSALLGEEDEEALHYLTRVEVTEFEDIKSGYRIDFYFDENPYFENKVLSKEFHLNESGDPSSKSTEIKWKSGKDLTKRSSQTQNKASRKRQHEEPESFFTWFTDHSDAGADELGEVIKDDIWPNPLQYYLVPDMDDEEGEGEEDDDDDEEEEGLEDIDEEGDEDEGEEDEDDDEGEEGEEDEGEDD
# SOD1, P00441, UniProt P00441, whole entry: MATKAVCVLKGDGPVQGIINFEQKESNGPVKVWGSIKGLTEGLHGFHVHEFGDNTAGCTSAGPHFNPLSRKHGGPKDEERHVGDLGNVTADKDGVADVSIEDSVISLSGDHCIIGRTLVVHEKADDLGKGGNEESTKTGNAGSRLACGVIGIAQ
# SRSF1, Q07955, UniProt Q07955, whole entry: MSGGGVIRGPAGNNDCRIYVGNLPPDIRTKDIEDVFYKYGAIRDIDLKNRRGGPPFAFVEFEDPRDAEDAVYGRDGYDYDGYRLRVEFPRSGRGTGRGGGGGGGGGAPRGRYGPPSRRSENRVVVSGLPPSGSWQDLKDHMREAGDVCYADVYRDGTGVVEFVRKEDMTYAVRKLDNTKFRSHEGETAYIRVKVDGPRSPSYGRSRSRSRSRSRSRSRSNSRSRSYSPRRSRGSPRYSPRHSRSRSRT
# CBX2, Q14781, UniProt Q14781, whole entry: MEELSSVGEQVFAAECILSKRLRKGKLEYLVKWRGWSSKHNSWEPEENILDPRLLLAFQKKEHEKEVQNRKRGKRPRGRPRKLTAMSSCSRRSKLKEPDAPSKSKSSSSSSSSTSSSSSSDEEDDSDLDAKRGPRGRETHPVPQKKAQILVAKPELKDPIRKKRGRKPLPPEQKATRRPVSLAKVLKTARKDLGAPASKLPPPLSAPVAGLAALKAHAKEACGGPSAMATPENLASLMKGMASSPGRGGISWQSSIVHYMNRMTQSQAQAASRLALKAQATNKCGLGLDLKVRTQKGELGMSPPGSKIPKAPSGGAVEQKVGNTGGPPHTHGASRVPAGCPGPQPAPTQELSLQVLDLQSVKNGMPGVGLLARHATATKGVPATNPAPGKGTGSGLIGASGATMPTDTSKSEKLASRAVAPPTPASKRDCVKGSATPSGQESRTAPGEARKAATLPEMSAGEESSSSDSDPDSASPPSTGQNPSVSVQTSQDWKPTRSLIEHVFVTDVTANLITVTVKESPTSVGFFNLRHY
# CNOT2, Q9NZN8, UniProt Q9NZN8, whole entry: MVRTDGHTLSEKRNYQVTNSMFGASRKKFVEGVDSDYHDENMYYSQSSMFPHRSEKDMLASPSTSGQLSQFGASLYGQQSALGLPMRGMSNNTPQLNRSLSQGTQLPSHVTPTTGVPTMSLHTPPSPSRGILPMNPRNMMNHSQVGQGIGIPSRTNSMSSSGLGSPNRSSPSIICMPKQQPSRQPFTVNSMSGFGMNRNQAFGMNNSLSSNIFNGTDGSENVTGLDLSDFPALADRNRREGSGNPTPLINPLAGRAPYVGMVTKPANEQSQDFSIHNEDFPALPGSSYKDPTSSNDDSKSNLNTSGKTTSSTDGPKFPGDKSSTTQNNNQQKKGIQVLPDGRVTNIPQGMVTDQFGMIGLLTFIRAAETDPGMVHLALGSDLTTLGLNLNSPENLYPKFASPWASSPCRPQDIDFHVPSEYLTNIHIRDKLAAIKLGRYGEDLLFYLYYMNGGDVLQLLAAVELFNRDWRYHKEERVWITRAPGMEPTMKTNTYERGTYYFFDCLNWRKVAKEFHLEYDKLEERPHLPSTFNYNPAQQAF
# MYO5A, Q9Y4I1, UniProt Q9Y4I1, whole entry: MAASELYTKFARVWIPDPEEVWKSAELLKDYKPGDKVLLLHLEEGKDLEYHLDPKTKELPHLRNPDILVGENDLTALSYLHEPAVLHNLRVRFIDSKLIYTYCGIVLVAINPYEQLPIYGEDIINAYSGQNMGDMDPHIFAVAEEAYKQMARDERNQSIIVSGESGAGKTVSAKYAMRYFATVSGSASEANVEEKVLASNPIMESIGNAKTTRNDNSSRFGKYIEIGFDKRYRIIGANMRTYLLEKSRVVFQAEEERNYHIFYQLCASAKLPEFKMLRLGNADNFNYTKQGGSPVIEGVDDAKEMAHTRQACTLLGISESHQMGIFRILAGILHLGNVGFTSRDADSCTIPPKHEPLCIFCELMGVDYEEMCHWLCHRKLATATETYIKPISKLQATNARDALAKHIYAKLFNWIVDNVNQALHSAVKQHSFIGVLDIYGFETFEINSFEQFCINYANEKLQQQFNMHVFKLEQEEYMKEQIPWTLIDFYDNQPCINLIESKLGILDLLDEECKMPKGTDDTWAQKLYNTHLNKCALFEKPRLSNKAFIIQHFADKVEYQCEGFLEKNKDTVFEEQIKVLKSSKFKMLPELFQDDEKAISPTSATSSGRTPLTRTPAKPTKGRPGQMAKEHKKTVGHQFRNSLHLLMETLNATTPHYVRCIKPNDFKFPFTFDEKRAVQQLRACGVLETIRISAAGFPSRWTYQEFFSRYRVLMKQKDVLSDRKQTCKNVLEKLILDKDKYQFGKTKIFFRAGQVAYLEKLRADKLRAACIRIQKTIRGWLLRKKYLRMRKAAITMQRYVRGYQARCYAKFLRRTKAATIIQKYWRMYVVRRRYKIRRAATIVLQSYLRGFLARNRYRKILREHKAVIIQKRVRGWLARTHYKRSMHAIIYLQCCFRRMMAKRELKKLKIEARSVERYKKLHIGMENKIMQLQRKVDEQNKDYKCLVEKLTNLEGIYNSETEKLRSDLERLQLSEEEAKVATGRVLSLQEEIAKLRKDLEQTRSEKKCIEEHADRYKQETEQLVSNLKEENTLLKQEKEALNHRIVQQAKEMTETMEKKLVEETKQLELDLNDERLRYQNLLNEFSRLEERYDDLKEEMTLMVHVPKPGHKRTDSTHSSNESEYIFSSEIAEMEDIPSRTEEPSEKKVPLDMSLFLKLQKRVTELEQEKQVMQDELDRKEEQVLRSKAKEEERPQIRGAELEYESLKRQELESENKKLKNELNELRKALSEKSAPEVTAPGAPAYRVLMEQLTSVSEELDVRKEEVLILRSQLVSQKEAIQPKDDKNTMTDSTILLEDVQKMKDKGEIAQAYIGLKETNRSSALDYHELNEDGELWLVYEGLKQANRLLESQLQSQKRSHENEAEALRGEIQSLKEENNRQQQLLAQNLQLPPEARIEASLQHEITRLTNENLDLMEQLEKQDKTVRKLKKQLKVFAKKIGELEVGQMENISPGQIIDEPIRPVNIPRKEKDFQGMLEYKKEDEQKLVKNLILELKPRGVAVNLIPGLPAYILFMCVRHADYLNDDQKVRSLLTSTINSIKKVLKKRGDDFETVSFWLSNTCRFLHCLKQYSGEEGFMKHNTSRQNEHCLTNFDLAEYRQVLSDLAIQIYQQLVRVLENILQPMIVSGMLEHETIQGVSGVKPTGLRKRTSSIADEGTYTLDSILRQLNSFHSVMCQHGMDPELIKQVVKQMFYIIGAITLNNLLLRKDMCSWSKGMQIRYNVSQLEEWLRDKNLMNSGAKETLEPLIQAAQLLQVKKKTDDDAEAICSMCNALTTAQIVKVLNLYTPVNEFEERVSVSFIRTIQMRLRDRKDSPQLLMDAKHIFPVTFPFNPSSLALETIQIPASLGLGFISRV
# PPP2R1B, P30154, UniProt P30154, whole entry: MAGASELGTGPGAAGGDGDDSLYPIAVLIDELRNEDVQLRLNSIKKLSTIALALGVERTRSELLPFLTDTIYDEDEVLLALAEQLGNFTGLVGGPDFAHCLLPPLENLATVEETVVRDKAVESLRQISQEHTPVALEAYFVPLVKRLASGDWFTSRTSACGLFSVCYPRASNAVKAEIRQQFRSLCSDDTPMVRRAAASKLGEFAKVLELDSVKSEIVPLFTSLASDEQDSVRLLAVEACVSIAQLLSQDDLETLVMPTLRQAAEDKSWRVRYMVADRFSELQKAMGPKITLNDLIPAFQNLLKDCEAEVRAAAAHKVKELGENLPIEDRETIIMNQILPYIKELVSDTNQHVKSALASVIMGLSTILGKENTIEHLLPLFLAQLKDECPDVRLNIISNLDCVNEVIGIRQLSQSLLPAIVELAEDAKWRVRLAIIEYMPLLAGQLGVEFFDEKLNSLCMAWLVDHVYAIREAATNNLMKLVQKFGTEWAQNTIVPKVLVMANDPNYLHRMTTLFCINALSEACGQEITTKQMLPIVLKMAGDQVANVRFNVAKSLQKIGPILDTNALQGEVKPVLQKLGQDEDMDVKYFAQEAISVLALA
# SNRPC, P09234, UniProt P09234, whole entry: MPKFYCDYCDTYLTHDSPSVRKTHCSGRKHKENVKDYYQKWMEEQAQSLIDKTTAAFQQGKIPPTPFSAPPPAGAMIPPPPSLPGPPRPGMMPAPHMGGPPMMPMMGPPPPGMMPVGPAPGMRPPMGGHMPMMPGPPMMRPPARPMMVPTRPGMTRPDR
# SRPK1, Q96SB4, UniProt Q96SB4, whole entry: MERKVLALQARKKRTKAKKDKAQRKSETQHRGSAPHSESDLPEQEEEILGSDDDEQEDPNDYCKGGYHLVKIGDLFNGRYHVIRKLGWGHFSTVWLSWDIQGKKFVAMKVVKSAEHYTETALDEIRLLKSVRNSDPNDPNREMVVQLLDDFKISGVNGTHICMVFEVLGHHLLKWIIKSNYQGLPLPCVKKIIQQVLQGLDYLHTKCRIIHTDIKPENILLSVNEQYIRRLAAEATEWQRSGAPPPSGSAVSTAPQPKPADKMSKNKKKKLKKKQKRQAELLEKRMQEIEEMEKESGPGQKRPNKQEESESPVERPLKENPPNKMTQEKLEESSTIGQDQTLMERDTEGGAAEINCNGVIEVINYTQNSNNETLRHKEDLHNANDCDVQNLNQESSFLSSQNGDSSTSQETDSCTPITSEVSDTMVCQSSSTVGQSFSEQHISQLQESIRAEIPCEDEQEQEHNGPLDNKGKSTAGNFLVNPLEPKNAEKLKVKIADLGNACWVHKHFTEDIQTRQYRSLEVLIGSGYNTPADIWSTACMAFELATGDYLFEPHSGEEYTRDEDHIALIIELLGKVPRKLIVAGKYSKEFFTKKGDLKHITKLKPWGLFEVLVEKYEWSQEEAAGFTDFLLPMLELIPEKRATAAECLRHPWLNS
# This is one part of the list. The list holds hits alone, and they repeat only in part.
# B1: PVT1 (peptide)
# chain: EGRRRAASKDVPRDP
# B2: RP11-432J24.5_2 (peptide)
# chain: WINVSTWASWVSRTS
# Key:
# Experiment in all cases: PRISMA enrichment of interactor (LFQ) in peptide spot vs all other peptide spots (log2 fold change); higher = stronger / more specific binding of the interactor to the peptide
# ALDH4A1, P30038 = biological target: ALDH4A1, P30038
# Experimental: (§1)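 PRISMA: 15-aa overlapping tiles (offset 8 aa) of 60 microproteins, plus SOS1/GLUT1 control peptides, were spot-synthesized on cellulose membranes in triplicate. Membranes were incubated with benzonase-treated HEK293T lysate, and bound proteins were identified by LC-MS/MS with LFQ. Enrichment is the log2 fold change of each protein in one spot versus all other spots. Only interactors passing the significance cutoff are listed.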
# ANP32A, P39687 = biological target: ANP32A, P39687
# Experimental: as §1
# APRT, P07741 = biological target: APRT, P07741
# Experimental: as §1
# C11orf58, O00193 = biological target: C11orf58, O00193
# Experimental: as §1
# C1QBP, Q07021 = biological target: C1QBP, Q07021
# Experimental: as §1
# CAMP, P49913 = biological target: CAMP, P49913
# Experimental: as §1
# CDKN2AIP, Q9NXV6 = biological target: CDKN2AIP, Q9NXV6
# Experimental: as §1
# CFDP1, Q9UEE9 = biological target: CFDP1, Q9UEE9
# Experimental: as §1
# DDX56, Q9NY93 = biological target: DDX56, Q9NY93
# Experimental: as §1
# FAM98B, Q52LJ0 = biological target: FAM98B, Q52LJ0
# Experimental: as §1
# GOLIM4, O00461 = biological target: GOLIM4, O00461
# Experimental: as §1
# HDGFL2, Q7Z4V5 = biological target: HDGFL2, Q7Z4V5
# Experimental: as §1
# LSM14A, Q8ND56 = biological target: LSM14A, Q8ND56
# Experimental: as §1
# MRPL27, Q9P0M9 = biological target: MRPL27, Q9P0M9
# Experimental: as §1
# NCL, P19338 = biological target: NCL, P19338
# Experimental: as §1
# NME4, O00746 = biological target: NME4, O00746
# Experimental: as §1
# [1] = substrate: NOSIP, Q9Y314
# Experimental: as §1
# PPP1R14A, Q96A00 = biological target: PPP1R14A, Q96A00
# Experimental: as §1
# PYCR3, Q53H96 = biological target: PYCR3, Q53H96
# Experimental: as §1
# SBNO1, A3KN83 = biological target: SBNO1, A3KN83
# Experimental: as §1
# SET, Q01105 = biological target: SET, Q01105
# Experimental: as §1
# SOD1, P00441 = biological target: SOD1, P00441
# Experimental: as §1
# SRSF1, Q07955 = biological target: SRSF1, Q07955
# Experimental: as §1
# SRSF2, Q01130 = biological target: SRSF2, Q01130
# Experimental: as §1
# SRSF5, Q13243 = biological target: SRSF5, Q13243
# Experimental: as §1
# SRSF6, Q13247 = biological target: SRSF6, Q13247
# Experimental: as §1
# SRSF7, Q16629 = biological target: SRSF7, Q16629
# Experimental: as §1
# ALDH9A1, P49189 = biological target: ALDH9A1, P49189
# Experimental: as §1
# AMMECR1, Q9Y4X0 = biological target: AMMECR1, Q9Y4X0
# Experimental: as §1
# BPTF, Q12830 = biological target: BPTF, Q12830
# Experimental: as §1
# CALM3, P0DP23 = biological target: CALM3, P0DP23
# Experimental: as §1
# CBX2, Q14781 = biological target: CBX2, Q14781
# Experimental: as §1
# CNOT2, Q9NZN8 = biological target: CNOT2, Q9NZN8
# Experimental: as §1
# COPG2, Q9UBF2 = biological target: COPG2, Q9UBF2
# Experimental: as §1
# COPS4, Q9BT78 = biological target: COPS4, Q9BT78
# Experimental: as §1
# DNAJB4, Q9UDY4 = biological target: DNAJB4, Q9UDY4
# Experimental: as §1
# EMG1, Q92979 = biological target: EMG1, Q92979
# Experimental: as §1
# FMR1, Q06787 = biological target: FMR1, Q06787
# Experimental: as §1
# IWS1, Q96ST2 = biological target: IWS1, Q96ST2
# Experimental: as §1
# LIN7C, Q9NUP9 = biological target: LIN7C, Q9NUP9
# Experimental: as §1
# MRPS25, P82663 = biological target: MRPS25, P82663
# Experimental: as §1
# MYO5A, Q9Y4I1 = biological target: MYO5A, Q9Y4I1
# Experimental: as §1
# NCOA5, Q9HCD5 = biological target: NCOA5, Q9HCD5
# Experimental: as §1
# PCLAF, Q15004 = biological target: PCLAF, Q15004
# Experimental: as §1
# PDIA4, P13667 = biological target: PDIA4, P13667
# Experimental: as §1
# PGD, P52209 = biological target: PGD, P52209
# Experimental: as §1
# PJA2, O43164 = biological target: PJA2, O43164
# Experimental: as §1
# POLA1, P09884 = biological target: POLA1, P09884
# Experimental: as §1
# PPP2R1B, P30154 = biological target: PPP2R1B, P30154
# Experimental: as §1
# PRIM1, P49642 = biological target: PRIM1, P49642
# Experimental: as §1
# PSMD4, P55036 = biological target: PSMD4, P55036
# Experimental: as §1
# PUS1, Q9Y606 = biological target: PUS1, Q9Y606
# Experimental: as §1
# RAB2A, P61019 = biological target: RAB2A, P61019
# Experimental: as §1
# SNRPC, P09234 = biological target: SNRPC, P09234
# Experimental: as §1
# SRPK1, Q96SB4 = biological target: SRPK1, Q96SB4
# Experimental: as §1
# STMN3, Q9NZ72 = biological target: STMN3, Q9NZ72
# Experimental: as §1
binder,measurement,setting,value
B1,PRISMA enrichment of interactor (log2),"ALDH4A1, P30038",5.42
same,PRISMA enrichment of interactor (log2),"ANP32A, P39687",7.77
same,PRISMA enrichment of interactor (log2),"APRT, P07741",4.61
same,PRISMA enrichment of interactor (log2),"C11orf58, O00193",4.46
same,PRISMA enrichment of interactor (log2),"C1QBP, Q07021",7.12
same,PRISMA enrichment of interactor (log2),"CAMP, P49913",6.81
same,PRISMA enrichment of interactor (log2),"CDKN2AIP, Q9NXV6",7.05
same,PRISMA enrichment of interactor (log2),"CFDP1, Q9UEE9",4.43
same,PRISMA enrichment of interactor (log2),"DDX56, Q9NY93",5.33
same,PRISMA enrichment of interactor (log2),"FAM98B, Q52LJ0",9.17
same,PRISMA enrichment of interactor (log2),"GOLIM4, O00461",4.56
same,PRISMA enrichment of interactor (log2),"HDGFL2, Q7Z4V5",5.25
same,PRISMA enrichment of interactor (log2),"LSM14A, Q8ND56",5.01
same,PRISMA enrichment of interactor (log2),"MRPL27, Q9P0M9",7.12
same,PRISMA enrichment of interactor (log2),"NCL, P19338",5.73
same,PRISMA enrichment of interactor (log2),"NME4, O00746",5.19
same,PRISMA enrichment of interactor (log2),[1],5.12
same,PRISMA enrichment of interactor (log2),"PPP1R14A, Q96A00",6.11
same,PRISMA enrichment of interactor (log2),"PYCR3, Q53H96",7.74
same,PRISMA enrichment of interactor (log2),"SBNO1, A3KN83",4.2
same,PRISMA enrichment of interactor (log2),"SET, Q01105",7.63
same,PRISMA enrichment of interactor (log2),"SOD1, P00441",6.83
same,PRISMA enrichment of interactor (log2),"SRSF1, Q07955",6.24
same,PRISMA enrichment of interactor (log2),"SRSF2, Q01130",6.82
same,PRISMA enrichment of interactor (log2),"SRSF5, Q13243",5.42
same,PRISMA enrichment of interactor (log2),"SRSF6, Q13247",5.67
same,PRISMA enrichment of interactor (log2),"SRSF7, Q16629",6.66
B2,PRISMA enrichment of interactor (log2),"ALDH9A1, P49189",5.81
same,PRISMA enrichment of interactor (log2),"AMMECR1, Q9Y4X0",5.62
same,PRISMA enrichment of interactor (log2),"BPTF, Q12830",3.95
same,PRISMA enrichment of interactor (log2),"CALM3, P0DP23",4.89
same,PRISMA enrichment of interactor (log2),"CBX2, Q14781",5.64
same,PRISMA enrichment of interactor (log2),"CNOT2, Q9NZN8",5.86
same,PRISMA enrichment of interactor (log2),"COPG2, Q9UBF2",4
same,PRISMA enrichment of interactor (log2),"COPS4, Q9BT78",4.28
same,PRISMA enrichment of interactor (log2),"DNAJB4, Q9UDY4",7.33
same,PRISMA enrichment of interactor (log2),"EMG1, Q92979",5.7
same,PRISMA enrichment of interactor (log2),"FMR1, Q06787",4.34
same,PRISMA enrichment of interactor (log2),"IWS1, Q96ST2",7.07
same,PRISMA enrichment of interactor (log2),"LIN7C, Q9NUP9",4.4
same,PRISMA enrichment of interactor (log2),"MRPL27, Q9P0M9",9.16
same,PRISMA enrichment of interactor (log2),"MRPS25, P82663",4.45
same,PRISMA enrichment of interactor (log2),"MYO5A, Q9Y4I1",6.54
same,PRISMA enrichment of interactor (log2),"NCOA5, Q9HCD5",4.07
same,PRISMA enrichment of interactor (log2),"PCLAF, Q15004",4.98
same,PRISMA enrichment of interactor (log2),"PDIA4, P13667",5.36
same,PRISMA enrichment of interactor (log2),"PGD, P52209",6.48
same,PRISMA enrichment of interactor (log2),"PJA2, O43164",4.29
same,PRISMA enrichment of interactor (log2),"POLA1, P09884",4.75
same,PRISMA enrichment of interactor (log2),"PPP2R1B, P30154",4.02
same,PRISMA enrichment of interactor (log2),"PRIM1, P49642",6.4
same,PRISMA enrichment of interactor (log2),"PSMD4, P55036",5.8
same,PRISMA enrichment of interactor (log2),"PUS1, Q9Y606",4.42
same,PRISMA enrichment of interactor (log2),"RAB2A, P61019",4.23
same,PRISMA enrichment of interactor (log2),"SNRPC, P09234",5.59
same,PRISMA enrichment of interactor (log2),"SRPK1, Q96SB4",5.54
same,PRISMA enrichment of interactor (log2),"STMN3, Q9NZ72",3.94

# Reformatted bar-delimited: part of the list above.
binder | measurement | setting | value
B1 | PRISMA enrichment of interactor (log2) | LSM14A, Q8ND56 | 5.01
B2 | PRISMA enrichment of interactor (log2) | NCOA5, Q9HCD5 | 4.07
same | PRISMA enrichment of interactor (log2) | PGD, P52209 | 6.48
same | PRISMA enrichment of interactor (log2) | PUS1, Q9Y606 | 4.42
